What all share (assay): co-IP
For test [1], the target named is T1, DDX50-HA (pCW57 MEF cell line) (UniProt Q99MJ9).
T1 sequence: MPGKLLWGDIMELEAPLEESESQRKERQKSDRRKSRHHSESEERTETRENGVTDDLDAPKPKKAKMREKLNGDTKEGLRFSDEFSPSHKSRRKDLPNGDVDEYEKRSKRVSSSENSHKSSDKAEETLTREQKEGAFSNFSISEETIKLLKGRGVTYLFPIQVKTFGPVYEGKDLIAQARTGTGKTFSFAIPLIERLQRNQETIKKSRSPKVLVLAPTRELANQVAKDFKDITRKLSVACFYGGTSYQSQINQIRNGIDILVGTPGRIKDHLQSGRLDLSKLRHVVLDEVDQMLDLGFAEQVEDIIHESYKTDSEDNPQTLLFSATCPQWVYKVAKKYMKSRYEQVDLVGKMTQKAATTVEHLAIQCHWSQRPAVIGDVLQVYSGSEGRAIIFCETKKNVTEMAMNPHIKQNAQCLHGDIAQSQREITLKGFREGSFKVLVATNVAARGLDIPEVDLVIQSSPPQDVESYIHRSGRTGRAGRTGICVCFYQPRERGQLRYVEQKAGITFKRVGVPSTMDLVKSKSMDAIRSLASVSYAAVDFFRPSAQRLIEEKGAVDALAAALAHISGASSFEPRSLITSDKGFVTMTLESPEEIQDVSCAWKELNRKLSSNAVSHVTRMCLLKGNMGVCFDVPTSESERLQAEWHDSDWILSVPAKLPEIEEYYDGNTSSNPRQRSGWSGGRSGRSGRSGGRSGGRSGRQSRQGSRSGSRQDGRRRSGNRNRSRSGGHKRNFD

Chains of the proteins cited; added tags and fusions are not shown.
UniProt Q8IUC6: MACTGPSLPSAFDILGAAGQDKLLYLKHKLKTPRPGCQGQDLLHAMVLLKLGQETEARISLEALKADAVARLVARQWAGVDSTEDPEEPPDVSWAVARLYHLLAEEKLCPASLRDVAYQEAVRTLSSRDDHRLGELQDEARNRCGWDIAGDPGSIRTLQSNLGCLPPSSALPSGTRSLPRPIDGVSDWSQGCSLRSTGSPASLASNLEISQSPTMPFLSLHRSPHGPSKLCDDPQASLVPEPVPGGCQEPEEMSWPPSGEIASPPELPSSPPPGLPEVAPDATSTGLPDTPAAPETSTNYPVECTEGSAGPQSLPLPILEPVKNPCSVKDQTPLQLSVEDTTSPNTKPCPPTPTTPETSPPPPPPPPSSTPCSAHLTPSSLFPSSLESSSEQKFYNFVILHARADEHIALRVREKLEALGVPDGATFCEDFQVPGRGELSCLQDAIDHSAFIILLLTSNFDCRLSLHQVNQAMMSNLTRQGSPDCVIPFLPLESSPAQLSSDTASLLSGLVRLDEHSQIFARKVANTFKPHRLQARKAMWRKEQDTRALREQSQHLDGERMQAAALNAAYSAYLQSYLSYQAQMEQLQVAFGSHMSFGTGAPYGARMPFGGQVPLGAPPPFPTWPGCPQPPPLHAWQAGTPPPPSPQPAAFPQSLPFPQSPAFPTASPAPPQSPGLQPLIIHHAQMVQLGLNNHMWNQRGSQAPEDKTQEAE

Test [2] has as its target T2, hDDX50-HA (in HeLa) (human) (UniProt Q9BQ39).
T2 sequence: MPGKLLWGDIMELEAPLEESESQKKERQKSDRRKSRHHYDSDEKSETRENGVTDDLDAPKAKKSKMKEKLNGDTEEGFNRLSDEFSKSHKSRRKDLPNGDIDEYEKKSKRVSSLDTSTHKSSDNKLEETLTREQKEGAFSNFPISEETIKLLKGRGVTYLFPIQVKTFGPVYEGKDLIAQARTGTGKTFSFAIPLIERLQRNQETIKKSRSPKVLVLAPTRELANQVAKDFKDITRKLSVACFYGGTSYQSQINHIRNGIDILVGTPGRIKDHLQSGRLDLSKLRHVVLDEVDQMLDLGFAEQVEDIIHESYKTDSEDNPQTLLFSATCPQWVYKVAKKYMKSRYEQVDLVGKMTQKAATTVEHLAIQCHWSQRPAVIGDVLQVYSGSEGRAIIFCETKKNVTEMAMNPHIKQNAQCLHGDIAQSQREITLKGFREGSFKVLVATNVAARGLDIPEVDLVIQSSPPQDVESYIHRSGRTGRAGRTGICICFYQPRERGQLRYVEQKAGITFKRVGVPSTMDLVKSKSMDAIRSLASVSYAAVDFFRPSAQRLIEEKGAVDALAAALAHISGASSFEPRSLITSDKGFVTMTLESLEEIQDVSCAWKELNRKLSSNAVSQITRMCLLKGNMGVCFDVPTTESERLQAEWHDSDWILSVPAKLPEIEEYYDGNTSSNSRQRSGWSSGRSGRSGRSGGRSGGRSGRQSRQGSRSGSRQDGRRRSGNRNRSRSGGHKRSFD

The next test deals with TRIF-cTAP (in HEK293T) (UniProt Q8IUC6).
The target of another test is TRIF-cTAP (in HeLa) (UniProt Q8IUC6).

Results are given in words; binding and its absence hold for the method and conditions named. Binding seen in cells or lysates may run through a third protein. Some results given as binding are weak or reduced against the parent protein; the word gives no strength. For some of these results: Tags and fused reporters may be left off the sequences shown.

These results are taken from paper doi:10.1101/2020.08.06.239376.

As for “TRIF-cTAP (in MEFs) (from UniProt Q8IUC6 1-712)”, in test [1], the binding result is reported as “binds”.

B1: endogenous DDX1 (HeLa) (protein, UniProt Q92499 1-740)
chain: MAAFSEMGVMPEIAQAVEEMDWLLPTDIQAESIPLILGGGDVLMAAETGSGKTGAFSIPVIQIVYETLKDQQEGKKGKTTIKTGASVLNKWQMNPYDRGSAFAIGSDGLCCQSREVKEWHGCRATKGLMKGKHYYEVSCHDQGLCRVGWSTMQASLDLGTDKFGFGFGGTGKKSHNKQFDNYGEEFTMHDTIGCYLDIDKGHVKFSKNGKDLGLAFEIPPHMKNQALFPACVLKNAELKFNFGEEEFKFPPKDGFVALSKAPDGYIVKSQHSGNAQVTQTKFLPNAPKALIVEPSRELAEQTLNNIKQFKKYIDNPKLRELLIIGGVAARDQLSVLENGVDIVVGTPGRLDDLVSTGKLNLSQVRFLVLDEADGLLSQGYSDFINRMHNQIPQVTSDGKRLQVIVCSATLHSFDVKKLSEKIMHFPTWVDLKGEDSVPDTVHHVVVPVNPKTDRLWERLGKSHIRTDDVHAKDNTRPGANSPEMWSEAIKILKGEYAVRAIKEHKMDQAIIFCRTKIDCDNLEQYFIQQGGGPDKKGHQFSCVCLHGDRKPHERKQNLERFKKGDVRFLICTDVAARGIDIHGVPYVINVTLPDEKQNYVHRIGRVGRAERMGLAISLVATEKEKVWYHVCSSRGKGCYNTRLKEDGGCTIWYNEMQLLSEIEEHLNCTISQVEPDIKVPVDEFDGKVTYGQKRAAGGGSYKGHVDILAPTVQELAALEKEAQTSFLHLGYLPNQLFRTF
Consider B1, for which the binding entry in test [2] is given as “binds weakly”.

B2: endogenous DDX1 (HEK293T) (protein, UniProt Q92499 1-740)
chain: B1 chain
Regarding B2, in the test with TRIF-cTAP (in HEK293T), the binding result is given as “binds”.

B3: hDDX50-HA (in HeLa) (protein, UniProt Q9BQ39 1-737)
chain: T2 sequence
For the molecule B3, the binding entry with TRIF-cTAP (in HeLa) is listed as “binds”.
